These are yes or no findings as the source states them, for the method shown. For some of these results: Binding seen in cells or lysates may run through a third protein. Some results given as binding are weak or reduced against the parent protein; the word gives no strength. For some of these results: Tags and fused reporters may be left off the sequences shown.

The chains behind the UniProt entries cited, without tags or fusion partners.
UniProt P04608: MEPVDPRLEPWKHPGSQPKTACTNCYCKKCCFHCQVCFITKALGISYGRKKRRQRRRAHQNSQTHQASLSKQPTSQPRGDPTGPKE

Assay [1] concerns the target T1, AFF4 ectopically expressed in cells (UniProt Q9UHB7).
T1 sequence: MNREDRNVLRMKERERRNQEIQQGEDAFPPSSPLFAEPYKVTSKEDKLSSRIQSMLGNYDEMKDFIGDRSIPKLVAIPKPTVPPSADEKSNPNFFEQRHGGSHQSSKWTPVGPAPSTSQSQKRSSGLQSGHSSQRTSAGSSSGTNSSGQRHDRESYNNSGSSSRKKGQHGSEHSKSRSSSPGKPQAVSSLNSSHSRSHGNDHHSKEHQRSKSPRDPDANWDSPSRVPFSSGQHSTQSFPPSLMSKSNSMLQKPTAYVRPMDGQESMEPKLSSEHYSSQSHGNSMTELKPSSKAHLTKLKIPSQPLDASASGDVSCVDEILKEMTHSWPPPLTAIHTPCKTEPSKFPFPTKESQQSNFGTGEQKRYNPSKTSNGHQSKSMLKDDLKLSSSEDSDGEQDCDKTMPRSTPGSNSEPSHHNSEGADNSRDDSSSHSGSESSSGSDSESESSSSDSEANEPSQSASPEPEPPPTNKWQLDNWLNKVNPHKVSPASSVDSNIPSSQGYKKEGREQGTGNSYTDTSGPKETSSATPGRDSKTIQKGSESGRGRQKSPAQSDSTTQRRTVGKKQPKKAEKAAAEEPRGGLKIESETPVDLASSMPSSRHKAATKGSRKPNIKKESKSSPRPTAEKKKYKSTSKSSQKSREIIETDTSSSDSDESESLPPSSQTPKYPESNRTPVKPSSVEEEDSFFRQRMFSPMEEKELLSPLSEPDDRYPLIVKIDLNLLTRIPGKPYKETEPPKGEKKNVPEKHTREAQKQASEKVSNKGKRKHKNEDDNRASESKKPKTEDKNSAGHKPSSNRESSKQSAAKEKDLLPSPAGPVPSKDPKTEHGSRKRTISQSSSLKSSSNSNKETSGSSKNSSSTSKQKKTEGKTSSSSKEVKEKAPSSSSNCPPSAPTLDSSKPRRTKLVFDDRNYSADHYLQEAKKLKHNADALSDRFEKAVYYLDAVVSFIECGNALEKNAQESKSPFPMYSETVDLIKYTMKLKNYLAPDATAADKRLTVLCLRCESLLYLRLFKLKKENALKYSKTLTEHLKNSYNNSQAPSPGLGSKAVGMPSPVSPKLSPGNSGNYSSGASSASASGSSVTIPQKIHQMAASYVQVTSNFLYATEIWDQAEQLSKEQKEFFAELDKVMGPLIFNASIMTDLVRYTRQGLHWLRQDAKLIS
The assay can be described thus: co-IP; in cells; cell line and constructs not named in the text (Supplementary Fig. 6k-l, 7a, b, f); for Tat and NPM1 with PRMT2 expressed or depleted.

The target of a further assay is T2, GST-PRMT2 (UniProt P55345).
T2 sequence: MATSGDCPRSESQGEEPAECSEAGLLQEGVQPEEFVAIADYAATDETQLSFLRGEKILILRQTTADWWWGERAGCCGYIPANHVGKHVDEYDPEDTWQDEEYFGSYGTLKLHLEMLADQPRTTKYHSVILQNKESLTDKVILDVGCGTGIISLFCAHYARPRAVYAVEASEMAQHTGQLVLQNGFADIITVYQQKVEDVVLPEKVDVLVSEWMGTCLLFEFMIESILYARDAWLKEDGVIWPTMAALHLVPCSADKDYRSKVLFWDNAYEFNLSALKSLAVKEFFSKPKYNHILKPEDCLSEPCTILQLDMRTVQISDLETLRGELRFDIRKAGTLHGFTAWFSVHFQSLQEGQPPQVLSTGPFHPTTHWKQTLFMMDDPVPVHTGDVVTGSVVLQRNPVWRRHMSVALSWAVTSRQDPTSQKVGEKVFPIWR
The assay can be described thus: pull-down; GST or GST fusion proteins (Rosetta) immobilized on glutathione sepharose 4B beads, incubated 3 h at 4 °C with His-tagged proteins (Rosetta, Ni-NTA) in RIPA buffer with 1 mM MgCl2; washed with RIPA buffer; Coomassie staining or western blotting; both purified.

In assay [2] the target is recombinant AFF4 (E61A, M62A and F65A) (UniProt Q9UHB7). The assay is described as above.
In the next assay the target is T3, recombinant AFF4 (UniProt Q9UHB7).
T3 sequence: T1 sequence
The assay is described as above.

For the substance “Flag-Tat (HIV-1 Tat) (from UniProt P04608 1-86)”, the binding result in assay [1] is recorded as “binds”.

“recombinant his-Tat (from UniProt P04608 1-86)”: the binding entry is “binds” with GST-PRMT2, “no binding” in assay [2] and “binds” in the assay with recombinant AFF4.
